No constants are given. Whether binding was seen depends on the method and setting. Some binding calls cover weakened binding; strength is not graded here. For part of these data: Where a sequence is shown, tags or fusion partners need not be part of it. Blank lines part the entries; values can stand above or below the binder they belong to.
Experiments:
[1] = target: FAT Tumor Suppressor Homolog 1 (FAT1) protein, human, endogenous in cancer cells and tissues (human) (UniProt Q14517); test: FACS of colon cancer cells (cell line not printed on the sheet) loaded with mAb91.4 at 10 micrograms/ml for 30 min at 4 C, then shifted to 37 C; PE-conjugated secondary antibody
[2] = target: T1, FAT1 Fragment A (amino acid 723 to amino acid 1352), His6-V5 tagged, in transfected HeLa/HEK-293T cells (human) (UniProt Q14517); test: transfected HeLa/HEK-293T cells
T1 sequence: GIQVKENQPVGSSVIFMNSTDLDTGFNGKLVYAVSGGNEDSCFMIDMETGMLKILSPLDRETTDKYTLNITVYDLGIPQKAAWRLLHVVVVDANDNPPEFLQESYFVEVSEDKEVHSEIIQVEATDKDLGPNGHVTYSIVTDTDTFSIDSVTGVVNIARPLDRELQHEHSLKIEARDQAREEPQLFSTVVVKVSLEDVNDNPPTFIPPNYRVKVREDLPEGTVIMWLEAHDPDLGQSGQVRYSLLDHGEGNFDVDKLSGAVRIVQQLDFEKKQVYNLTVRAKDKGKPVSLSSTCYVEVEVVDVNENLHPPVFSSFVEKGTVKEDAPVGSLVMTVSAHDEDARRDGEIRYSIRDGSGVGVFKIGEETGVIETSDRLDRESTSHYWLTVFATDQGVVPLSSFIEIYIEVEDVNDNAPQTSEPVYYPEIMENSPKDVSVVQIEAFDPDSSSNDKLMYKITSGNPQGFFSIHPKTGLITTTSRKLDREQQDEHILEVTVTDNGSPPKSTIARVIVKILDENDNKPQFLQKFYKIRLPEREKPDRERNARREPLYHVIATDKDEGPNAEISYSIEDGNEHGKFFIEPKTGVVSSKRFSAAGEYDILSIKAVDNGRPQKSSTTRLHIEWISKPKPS

[3] = target: FAT Tumor Suppressor Homolog 1 (FAT1) protein, human, endogenous in cancer cells and tissues (human) (UniProt Q14517); test: FACS on colon cancer cells, 10 micrograms/ml
[4] = target: FAT Tumor Suppressor Homolog 1 (FAT1) protein, human, endogenous in cancer cells and tissues (human) (UniProt Q14517); test: FACS on HCT15 and Colo205 cells
[5] = target: T2, shorter form of FAT1 Fragment A lacking the region overlapping with Fragment B (human) (UniProt Q14517); test: Western blot of transfected HeLa and HEK-293T cells
T2 sequence (looked up): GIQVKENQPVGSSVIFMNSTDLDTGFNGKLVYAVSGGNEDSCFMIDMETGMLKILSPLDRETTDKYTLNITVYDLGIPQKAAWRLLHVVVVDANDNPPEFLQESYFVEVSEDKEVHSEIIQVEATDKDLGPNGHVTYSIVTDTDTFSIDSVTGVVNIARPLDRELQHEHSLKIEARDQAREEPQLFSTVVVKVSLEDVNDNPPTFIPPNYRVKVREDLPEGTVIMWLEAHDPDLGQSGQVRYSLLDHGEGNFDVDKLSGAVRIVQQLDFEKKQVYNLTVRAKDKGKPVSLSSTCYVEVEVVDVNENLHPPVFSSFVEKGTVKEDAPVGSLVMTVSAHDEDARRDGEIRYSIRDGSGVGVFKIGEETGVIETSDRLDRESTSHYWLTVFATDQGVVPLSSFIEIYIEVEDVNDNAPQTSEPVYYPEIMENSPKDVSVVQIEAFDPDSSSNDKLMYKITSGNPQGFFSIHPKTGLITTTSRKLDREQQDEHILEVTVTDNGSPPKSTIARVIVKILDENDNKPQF

[6] = target: T2, shorter form of FAT1 Fragment A lacking the region overlapping with Fragment B (human); test: Western blot with mAb91.3 of total extracts of transfected HEK-293T cells
[7] = target: T3, FAT1 recombinant cadherin Domain 12 (amino acid 1246 to 1352) (human) (UniProt Q14517); test: ELISA on recombinant domain
T3 sequence: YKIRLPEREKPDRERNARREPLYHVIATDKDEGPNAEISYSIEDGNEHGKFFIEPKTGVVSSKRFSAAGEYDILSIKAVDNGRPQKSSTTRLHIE

[8] = target: T3, FAT1 recombinant cadherin Domain 12 (amino acid 1246 to 1352) (human); test: Western blot with mAb91.3, recombinant Domain 12 loaded beside the cell extracts
[9] = target: FAT Tumor Suppressor Homolog 1 (FAT1) protein, human, endogenous in cancer cells and tissues (human) (UniProt Q14517); test: FACS on Colo205 cells with HEK-293T culture supernatant

- binding [1]: binds
- binding [2]: binds
- binding [3]: binds
- binding [4]: binds
B1: anti-FAT1 monoclonal antibody mAb91.4 (antibody, V domains shown)
VH: QSGSGLVRPGTSVKLSCKASGFTFTSNWMHWVKQRPGQGLDWIGNIYPGSGKTNYGEKFKSKATLTVDTSSSTAYIQLSSLTSEDSAVYYCTRSGGQRFDYWGQGTTLTVSS
VL: QSPAIMSAFTGEKVTMTCSASSSVACMHWYQQKSSTSPKLLIYDTSELASGVPGRFSGSGSGNSYSLTISSMEAEDVATYYCFQGSGYPLTFGGGTKLEIKR

- binding [5]: binds
- binding [6]: binds
- binding [7]: binds
- binding [8]: binds
B2: anti-FAT1 monoclonal antibody mAb91.3 (antibody, V domains shown)
VH: VQLQQSGSELVRPGASVKLSCKASGYTFTRSWMHWIKQRPGQGLEWIGNIYPGSGGTNYDEKFKSKATLTVDTSSSTAYMQLSSLTSEDSAIYYCTRSGGQRFDYWGQGTTLTVSS
VL: IVMTQSPAIMSAFSGEKVTMTCSASSSVSSMHWYQQKSSTSPKFWIYDTSKLASGVPGRFSGSGSGNSYSLTISSMEAEDVATYYCFQGSGYPFTFGGGTKLEIKR

- binding [9]: binds
B3: recombinant mouse IgG2a antibody bearing the variable regions of mAb91.3 (antibody, V domains shown)
VH: B2 VH
VL: B2 VL

Source: patent publication US20160131656A1
